Experimental data as given in publication PMC6488099.
These are yes or no findings as the source states them, for the method shown. In cells and extracts the contact can be indirect. Some binding calls cover weakened binding; strength is not graded here. For some assays here: Sequences can lack the tags named with a protein.

By UniProt entry, the sequences of proteins in these tests, tags left out. Residues count along the entry.
UniProt P11021, residues 19-654: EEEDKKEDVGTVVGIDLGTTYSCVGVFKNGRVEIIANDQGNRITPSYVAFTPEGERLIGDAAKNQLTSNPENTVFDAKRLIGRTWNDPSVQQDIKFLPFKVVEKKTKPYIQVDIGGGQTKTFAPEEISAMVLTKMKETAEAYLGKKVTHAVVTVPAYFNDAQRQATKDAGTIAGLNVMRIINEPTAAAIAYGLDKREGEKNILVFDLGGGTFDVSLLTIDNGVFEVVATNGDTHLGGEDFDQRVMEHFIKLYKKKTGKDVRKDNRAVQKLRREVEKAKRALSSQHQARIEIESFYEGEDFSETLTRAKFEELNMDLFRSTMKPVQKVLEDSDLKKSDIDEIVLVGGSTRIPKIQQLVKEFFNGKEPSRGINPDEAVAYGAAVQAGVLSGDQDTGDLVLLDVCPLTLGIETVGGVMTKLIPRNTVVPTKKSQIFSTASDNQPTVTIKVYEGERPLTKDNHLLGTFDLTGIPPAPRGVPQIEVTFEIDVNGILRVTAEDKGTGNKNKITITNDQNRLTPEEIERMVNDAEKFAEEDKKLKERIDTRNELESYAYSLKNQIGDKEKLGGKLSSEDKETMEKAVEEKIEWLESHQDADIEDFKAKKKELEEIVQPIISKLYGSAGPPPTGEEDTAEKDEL

Key:
HA-tagged P0-S63del = target: T1, HA-tagged P0-S63del (UniProt P27573); experiment: co-IP; induced HEK293 cells treated 3 hr with/without the proteasome inhibitor PS341 before lysis; HA-tagged P0s immunoprecipitated, Western blot for BiP (anti-KDEL antibody) or CNX
T1 sequence: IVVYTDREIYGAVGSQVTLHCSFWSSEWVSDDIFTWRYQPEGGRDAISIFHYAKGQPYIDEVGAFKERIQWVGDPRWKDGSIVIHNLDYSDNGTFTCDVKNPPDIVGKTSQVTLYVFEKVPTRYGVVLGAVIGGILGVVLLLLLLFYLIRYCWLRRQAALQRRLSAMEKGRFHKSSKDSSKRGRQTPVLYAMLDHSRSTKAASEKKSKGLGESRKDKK

[1] = target: T2, Derlin-2 (mouse (endogenous in sciatic nerve)) (UniProt Q8BNI4); experiment: co-IP; P28 WT and S63del mouse sciatic nerve lysates; immunoprecipitation with anti-Derlin-1 or anti-Derlin-2 antibodies, Western blot for P0; n = 2
T2 sequence: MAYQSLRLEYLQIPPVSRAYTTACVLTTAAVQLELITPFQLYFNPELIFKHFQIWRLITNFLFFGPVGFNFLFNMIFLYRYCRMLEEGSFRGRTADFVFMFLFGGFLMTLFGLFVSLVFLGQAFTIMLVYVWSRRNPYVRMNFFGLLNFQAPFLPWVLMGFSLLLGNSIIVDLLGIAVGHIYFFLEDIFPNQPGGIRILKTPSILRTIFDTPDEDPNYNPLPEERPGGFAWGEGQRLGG

[2] = target: binding immunoglobulin protein (BiP) (human (endogenous in HEK293)) (UniProt P11021); experiment: co-IP; pulse-chase ([35S]-methionine/cysteine, chase 10 min, 120 min or 120 min with PS341) on HEK293 cells induced 17 hr; first immunoprecipitation against BiP or CNX, immunocomplexes dissociated, P0 re-immunoprecipitated with anti-HA; SDS-PAGE; said to reveal only stable interactions
[3] = target: T3, Calnexin (CNX) (human (endogenous in HEK293)) (UniProt P27824); experiment: as above
T3 sequence: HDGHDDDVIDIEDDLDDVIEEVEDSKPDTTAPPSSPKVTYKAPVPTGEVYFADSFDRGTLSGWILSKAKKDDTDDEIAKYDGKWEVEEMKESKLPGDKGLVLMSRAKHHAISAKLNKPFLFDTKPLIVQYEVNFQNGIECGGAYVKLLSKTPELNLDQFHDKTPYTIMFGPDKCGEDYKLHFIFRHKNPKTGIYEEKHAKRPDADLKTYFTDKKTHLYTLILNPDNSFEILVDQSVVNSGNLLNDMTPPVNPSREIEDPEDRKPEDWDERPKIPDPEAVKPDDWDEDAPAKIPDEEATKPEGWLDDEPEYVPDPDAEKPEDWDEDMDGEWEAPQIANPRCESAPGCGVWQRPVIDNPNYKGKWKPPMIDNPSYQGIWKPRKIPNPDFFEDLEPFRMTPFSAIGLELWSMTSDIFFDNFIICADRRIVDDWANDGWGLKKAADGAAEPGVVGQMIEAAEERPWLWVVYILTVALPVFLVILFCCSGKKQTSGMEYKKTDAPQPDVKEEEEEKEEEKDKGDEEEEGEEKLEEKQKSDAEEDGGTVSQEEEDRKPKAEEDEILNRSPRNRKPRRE

“binding immunoglobulin protein (BiP) (from UniProt P11021 19-654)” was tested, and the binding (HA-tagged P0-S63del) was “binds”.

B1: myelin protein zero (P0), wild type, in WT mouse sciatic nerve (protein, UniProt P27573 30-248)
chain: IVVYTDREIYGAVGSQVTLHCSFWSSEWVSDDISFTWRYQPEGGRDAISIFHYAKGQPYIDEVGAFKERIQWVGDPRWKDGSIVIHNLDYSDNGTFTCDVKNPPDIVGKTSQVTLYVFEKVPTRYGVVLGAVIGGILGVVLLLLLLFYLIRYCWLRRQAALQRRLSAMEKGRFHKSSKDSSKRGRQTPVLYAMLDHSRSTKAASEKKSKGLGESRKDKK
In the case of B1, the binding [1] is reported as “binds”.

B2: HA-tagged P0-S63del (protein, UniProt P27573 30-248)
chain: IVVYTDREIYGAVGSQVTLHCSFWSSEWVSDDIFTWRYQPEGGRDAISIFHYAKGQPYIDEVGAFKERIQWVGDPRWKDGSIVIHNLDYSDNGTFTCDVKNPPDIVGKTSQVTLYVFEKVPTRYGVVLGAVIGGILGVVLLLLLLFYLIRYCWLRRQAALQRRLSAMEKGRFHKSSKDSSKRGRQTPVLYAMLDHSRSTKAASEKKSKGLGESRKDKK
For B2, the binding [2] was “binds” and the binding [3] was “binds”.

B3: Calnexin (CNX) (protein, UniProt P27824 21-592)
chain: HDGHDDDVIDIEDDLDDVIEEVEDSKPDTTAPPSSPKVTYKAPVPTGEVYFADSFDRGTLSGWILSKAKKDDTDDEIAKYDGKWEVEEMKESKLPGDKGLVLMSRAKHHAISAKLNKPFLFDTKPLIVQYEVNFQNGIECGGAYVKLLSKTPELNLDQFHDKTPYTIMFGPDKCGEDYKLHFIFRHKNPKTGIYEEKHAKRPDADLKTYFTDKKTHLYTLILNPDNSFEILVDQSVVNSGNLLNDMTPPVNPSREIEDPEDRKPEDWDERPKIPDPEAVKPDDWDEDAPAKIPDEEATKPEGWLDDEPEYVPDPDAEKPEDWDEDMDGEWEAPQIANPRCESAPGCGVWQRPVIDNPNYKGKWKPPMIDNPSYQGIWKPRKIPNPDFFEDLEPFRMTPFSAIGLELWSMTSDIFFDNFIICADRRIVDDWANDGWGLKKAADGAAEPGVVGQMIEAAEERPWLWVVYILTVALPVFLVILFCCSGKKQTSGMEYKKTDAPQPDVKEEEEEKEEEKDKGDEEEEGEEKLEEKQKSDAEEDGGTVSQEEEDRKPKAEEDEILNRSPRNRKPRRE
In the case of B3, the binding (HA-tagged P0-S63del) is reported as “binds”.
